Paper PMC6143588, “A variant NuRD complex containing PWWP2A/B excludes MBD2/3 to regulate transcription at active genes” (Nature Communications, 2018)

Chains of the proteins cited; added tags and fusions are not shown.
UniProt Q12873: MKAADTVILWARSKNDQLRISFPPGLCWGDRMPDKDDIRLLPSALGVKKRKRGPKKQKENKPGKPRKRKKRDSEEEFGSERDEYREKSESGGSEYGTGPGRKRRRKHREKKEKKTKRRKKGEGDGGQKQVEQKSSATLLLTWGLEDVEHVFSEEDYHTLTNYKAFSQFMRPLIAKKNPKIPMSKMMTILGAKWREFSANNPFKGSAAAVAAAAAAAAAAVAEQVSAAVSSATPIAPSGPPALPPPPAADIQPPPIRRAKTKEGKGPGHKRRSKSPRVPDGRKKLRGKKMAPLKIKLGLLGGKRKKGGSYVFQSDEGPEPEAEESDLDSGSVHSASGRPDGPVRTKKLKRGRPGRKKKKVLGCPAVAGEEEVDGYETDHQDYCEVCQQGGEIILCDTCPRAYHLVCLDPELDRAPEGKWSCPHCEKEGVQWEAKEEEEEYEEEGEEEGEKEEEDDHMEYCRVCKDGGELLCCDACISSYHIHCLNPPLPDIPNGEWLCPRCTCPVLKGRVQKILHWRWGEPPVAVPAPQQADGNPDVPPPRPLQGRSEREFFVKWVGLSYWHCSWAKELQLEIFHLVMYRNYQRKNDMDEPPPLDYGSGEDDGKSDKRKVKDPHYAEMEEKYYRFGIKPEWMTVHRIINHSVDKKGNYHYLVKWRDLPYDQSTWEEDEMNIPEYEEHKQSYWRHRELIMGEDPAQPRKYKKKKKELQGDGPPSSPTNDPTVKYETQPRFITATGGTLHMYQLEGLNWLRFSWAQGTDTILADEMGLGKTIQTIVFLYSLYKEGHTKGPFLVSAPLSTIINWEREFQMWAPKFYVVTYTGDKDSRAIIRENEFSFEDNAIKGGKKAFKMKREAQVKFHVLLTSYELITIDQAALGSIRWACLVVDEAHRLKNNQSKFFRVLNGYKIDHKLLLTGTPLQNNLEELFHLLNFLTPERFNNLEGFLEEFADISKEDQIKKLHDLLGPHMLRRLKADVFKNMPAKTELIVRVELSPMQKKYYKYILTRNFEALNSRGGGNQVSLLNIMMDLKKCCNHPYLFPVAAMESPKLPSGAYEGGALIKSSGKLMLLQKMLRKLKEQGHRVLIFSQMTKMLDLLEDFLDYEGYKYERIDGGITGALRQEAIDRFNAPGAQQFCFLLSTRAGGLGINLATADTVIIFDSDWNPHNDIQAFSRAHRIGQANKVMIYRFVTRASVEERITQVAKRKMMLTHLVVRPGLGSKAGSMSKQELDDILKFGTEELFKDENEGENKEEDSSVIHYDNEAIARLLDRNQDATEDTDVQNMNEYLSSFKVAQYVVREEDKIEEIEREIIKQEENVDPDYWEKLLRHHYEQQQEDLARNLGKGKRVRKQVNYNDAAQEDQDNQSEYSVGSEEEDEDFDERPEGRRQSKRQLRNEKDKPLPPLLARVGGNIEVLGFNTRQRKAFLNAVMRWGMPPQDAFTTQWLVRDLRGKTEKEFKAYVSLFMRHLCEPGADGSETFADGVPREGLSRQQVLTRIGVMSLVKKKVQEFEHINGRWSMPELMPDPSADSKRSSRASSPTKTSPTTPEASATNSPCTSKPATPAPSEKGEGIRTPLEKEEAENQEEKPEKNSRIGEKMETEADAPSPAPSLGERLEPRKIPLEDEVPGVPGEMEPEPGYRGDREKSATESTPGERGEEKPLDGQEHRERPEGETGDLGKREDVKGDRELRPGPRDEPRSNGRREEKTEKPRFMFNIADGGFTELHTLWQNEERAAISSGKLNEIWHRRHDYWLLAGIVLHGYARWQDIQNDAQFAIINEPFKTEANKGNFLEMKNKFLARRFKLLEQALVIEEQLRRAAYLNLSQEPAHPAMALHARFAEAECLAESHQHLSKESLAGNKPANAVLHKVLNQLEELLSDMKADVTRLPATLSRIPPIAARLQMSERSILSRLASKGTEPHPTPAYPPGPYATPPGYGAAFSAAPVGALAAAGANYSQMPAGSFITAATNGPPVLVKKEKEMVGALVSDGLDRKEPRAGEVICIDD
UniProt Q92769: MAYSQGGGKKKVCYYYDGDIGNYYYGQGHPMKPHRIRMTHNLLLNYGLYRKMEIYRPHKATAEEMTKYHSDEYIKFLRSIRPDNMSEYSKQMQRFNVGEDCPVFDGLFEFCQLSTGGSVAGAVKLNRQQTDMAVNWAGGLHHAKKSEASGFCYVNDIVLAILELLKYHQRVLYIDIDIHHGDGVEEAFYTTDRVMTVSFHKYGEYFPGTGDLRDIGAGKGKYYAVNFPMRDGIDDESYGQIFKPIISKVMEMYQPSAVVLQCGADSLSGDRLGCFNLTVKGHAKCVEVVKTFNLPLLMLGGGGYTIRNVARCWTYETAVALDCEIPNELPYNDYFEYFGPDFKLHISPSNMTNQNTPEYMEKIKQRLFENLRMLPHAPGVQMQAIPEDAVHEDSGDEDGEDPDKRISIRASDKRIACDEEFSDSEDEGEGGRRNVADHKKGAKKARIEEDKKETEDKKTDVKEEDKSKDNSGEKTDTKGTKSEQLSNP
UniProt Q9UBB5: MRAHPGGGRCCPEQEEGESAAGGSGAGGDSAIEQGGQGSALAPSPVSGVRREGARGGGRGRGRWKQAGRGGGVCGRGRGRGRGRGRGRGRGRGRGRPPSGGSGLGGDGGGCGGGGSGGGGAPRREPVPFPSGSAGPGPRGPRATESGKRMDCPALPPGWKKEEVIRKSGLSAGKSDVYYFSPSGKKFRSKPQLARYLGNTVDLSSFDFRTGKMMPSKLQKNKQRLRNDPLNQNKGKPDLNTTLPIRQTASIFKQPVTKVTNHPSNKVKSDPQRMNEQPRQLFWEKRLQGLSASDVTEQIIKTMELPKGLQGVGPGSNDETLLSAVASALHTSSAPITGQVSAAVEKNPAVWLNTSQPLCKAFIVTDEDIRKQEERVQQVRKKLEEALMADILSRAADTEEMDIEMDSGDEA
UniProt Q6PDQ2: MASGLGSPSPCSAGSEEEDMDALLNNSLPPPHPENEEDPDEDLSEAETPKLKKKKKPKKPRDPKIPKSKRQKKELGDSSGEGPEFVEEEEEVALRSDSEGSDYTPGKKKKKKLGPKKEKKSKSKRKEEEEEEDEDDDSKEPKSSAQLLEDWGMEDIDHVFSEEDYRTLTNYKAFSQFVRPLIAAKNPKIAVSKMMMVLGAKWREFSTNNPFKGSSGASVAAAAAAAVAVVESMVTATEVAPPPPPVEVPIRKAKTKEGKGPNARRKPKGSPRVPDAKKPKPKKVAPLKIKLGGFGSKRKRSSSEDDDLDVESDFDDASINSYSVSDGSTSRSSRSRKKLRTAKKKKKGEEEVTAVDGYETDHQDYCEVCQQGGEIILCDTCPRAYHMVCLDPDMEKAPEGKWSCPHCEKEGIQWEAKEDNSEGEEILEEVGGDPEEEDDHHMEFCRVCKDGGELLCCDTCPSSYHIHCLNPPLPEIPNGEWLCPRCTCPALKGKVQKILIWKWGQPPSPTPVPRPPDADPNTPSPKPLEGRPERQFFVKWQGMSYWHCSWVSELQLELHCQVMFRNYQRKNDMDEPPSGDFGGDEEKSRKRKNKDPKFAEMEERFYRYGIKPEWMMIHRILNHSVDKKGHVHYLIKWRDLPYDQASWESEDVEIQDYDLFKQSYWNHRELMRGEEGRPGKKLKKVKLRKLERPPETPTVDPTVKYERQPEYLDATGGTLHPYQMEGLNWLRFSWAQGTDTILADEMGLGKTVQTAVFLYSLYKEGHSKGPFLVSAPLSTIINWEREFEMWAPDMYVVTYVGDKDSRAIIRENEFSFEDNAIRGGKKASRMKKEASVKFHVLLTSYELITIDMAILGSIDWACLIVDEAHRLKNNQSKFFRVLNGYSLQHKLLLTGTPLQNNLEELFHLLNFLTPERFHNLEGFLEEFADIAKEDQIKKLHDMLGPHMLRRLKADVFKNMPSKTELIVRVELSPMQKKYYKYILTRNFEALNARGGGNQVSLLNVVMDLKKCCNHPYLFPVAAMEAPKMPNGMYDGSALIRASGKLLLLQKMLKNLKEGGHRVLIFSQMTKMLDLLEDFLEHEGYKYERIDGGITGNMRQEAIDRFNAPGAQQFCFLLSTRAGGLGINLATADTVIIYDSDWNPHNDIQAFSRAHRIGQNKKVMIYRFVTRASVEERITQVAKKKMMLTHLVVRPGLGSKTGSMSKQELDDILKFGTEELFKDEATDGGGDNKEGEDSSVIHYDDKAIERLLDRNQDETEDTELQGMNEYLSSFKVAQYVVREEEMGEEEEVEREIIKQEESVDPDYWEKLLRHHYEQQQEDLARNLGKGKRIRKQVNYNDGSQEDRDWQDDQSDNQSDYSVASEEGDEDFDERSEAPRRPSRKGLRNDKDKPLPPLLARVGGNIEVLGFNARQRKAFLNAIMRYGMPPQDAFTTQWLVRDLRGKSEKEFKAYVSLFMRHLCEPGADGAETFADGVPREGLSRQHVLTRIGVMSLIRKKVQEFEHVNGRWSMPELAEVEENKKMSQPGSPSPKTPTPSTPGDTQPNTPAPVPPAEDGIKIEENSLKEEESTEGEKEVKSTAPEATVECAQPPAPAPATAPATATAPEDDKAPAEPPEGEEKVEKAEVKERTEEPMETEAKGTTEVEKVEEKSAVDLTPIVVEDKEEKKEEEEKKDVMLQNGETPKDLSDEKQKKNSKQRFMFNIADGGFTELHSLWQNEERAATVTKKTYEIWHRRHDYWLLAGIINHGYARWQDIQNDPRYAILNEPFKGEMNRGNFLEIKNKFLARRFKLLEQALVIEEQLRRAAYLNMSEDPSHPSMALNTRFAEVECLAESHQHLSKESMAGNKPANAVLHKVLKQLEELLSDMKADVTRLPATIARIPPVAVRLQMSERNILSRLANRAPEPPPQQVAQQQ
UniProt Q924K8: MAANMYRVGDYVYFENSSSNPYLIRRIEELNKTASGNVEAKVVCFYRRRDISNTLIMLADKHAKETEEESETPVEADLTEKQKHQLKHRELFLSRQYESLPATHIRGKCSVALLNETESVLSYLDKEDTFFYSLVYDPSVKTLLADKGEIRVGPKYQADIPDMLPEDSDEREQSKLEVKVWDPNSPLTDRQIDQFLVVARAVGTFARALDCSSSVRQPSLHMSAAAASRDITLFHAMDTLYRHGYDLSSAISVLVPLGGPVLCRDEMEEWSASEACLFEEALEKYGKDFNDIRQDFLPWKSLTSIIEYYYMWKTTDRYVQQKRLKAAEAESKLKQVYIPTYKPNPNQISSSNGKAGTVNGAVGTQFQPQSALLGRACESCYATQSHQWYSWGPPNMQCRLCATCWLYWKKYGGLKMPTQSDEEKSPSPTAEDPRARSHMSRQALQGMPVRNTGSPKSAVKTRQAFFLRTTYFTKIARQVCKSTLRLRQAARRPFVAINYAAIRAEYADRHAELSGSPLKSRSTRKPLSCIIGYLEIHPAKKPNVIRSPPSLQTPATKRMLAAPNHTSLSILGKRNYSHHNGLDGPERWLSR
UniProt Q8BX22: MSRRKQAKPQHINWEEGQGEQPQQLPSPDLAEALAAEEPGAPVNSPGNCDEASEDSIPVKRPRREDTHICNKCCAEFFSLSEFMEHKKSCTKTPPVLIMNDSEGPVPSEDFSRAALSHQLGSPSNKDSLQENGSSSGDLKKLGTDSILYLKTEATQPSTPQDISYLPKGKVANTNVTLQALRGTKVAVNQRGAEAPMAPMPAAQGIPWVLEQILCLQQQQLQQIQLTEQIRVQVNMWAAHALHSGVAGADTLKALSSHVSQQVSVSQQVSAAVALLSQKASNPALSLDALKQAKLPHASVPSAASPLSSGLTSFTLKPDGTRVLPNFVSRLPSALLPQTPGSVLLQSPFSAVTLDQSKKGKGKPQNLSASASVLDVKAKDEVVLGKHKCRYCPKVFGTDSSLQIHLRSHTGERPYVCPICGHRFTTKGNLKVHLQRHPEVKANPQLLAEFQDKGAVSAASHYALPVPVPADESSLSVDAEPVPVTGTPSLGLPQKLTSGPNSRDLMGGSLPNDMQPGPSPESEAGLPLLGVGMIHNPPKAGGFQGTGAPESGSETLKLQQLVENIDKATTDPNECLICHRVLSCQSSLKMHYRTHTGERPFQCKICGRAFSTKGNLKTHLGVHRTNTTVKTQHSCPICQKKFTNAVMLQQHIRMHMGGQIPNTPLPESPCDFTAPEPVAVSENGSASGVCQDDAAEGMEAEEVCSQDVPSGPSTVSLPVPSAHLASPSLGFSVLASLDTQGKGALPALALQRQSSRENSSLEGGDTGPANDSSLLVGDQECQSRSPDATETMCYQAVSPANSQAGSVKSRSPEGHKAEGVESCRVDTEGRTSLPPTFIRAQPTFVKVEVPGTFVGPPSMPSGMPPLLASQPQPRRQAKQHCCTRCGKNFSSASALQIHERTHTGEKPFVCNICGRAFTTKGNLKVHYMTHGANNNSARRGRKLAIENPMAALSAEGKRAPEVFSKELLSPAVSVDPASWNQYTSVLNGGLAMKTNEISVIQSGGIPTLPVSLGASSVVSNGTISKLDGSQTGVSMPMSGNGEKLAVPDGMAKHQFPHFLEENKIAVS

T1: PWWP2A purified from HeLa cells (UniProt Q96N64)
T1 sequence: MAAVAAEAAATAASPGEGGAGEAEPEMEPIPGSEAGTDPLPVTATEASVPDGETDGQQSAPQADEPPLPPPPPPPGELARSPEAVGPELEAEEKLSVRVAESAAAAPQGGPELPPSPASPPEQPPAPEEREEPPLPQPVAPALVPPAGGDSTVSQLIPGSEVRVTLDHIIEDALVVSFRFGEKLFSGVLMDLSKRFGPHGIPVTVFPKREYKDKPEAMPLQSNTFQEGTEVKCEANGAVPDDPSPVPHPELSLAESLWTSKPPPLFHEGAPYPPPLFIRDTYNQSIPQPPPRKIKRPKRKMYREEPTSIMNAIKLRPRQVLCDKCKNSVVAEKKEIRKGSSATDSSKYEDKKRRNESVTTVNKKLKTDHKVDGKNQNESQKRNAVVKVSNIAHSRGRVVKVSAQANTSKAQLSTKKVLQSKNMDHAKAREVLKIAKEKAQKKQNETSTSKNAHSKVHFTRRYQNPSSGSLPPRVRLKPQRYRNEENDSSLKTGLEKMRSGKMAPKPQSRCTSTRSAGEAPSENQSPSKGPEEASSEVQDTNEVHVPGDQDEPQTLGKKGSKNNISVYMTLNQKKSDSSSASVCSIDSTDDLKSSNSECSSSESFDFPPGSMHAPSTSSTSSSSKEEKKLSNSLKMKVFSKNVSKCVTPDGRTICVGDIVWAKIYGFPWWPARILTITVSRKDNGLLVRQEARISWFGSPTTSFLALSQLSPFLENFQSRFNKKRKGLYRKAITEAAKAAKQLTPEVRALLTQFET

T2: Flag-2xStrepII (FS2) tagged full-length PWWP2A (UniProt Q96N64)
T2 sequence: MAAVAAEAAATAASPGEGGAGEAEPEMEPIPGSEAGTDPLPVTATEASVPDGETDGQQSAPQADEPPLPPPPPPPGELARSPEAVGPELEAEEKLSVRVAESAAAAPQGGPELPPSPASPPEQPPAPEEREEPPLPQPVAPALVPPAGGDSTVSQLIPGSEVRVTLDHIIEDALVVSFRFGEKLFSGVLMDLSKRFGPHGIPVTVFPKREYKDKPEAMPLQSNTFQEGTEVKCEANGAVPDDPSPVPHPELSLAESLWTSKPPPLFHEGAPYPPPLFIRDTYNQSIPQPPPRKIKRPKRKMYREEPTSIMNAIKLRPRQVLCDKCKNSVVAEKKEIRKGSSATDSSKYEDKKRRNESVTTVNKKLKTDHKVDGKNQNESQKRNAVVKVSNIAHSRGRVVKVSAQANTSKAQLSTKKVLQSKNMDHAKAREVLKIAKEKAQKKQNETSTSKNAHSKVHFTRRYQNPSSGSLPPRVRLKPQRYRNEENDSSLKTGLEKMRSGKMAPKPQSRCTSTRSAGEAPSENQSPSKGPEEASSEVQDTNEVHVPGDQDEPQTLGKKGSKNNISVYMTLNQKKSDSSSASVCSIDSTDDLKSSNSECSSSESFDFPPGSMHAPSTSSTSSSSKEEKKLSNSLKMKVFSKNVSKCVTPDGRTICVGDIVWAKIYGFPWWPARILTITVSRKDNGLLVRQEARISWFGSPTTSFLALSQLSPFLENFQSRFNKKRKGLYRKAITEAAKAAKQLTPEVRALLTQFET

B1: ZFP423, endogenous in mESCs (protein, UniProt Q80TS5 1-1292)
chain: MSRRKQAKPRSVKVEEGEASDFSLAWDSSVAAAGGLEGEPECDRKTSRALEDRNSVTSQEERNEDDEDVEDESIYTCDHCQQDFESLADLTDHRAHRCPGDGDDDPQLSWVASSPSSKDVASPTQMIGDGCDLGLGEEEGGTGLPYPCQFCDKSFIRLSYLKRHEQIHSDKLPFKCTFCSRLFKHKRSRDRHIKLHTGDKKYHCHECEAAFSRSDHLKIHLKTHSSSKPFKCSVCKRGFSSTSSLQSHMQAHKKNKEHLAKSEKEAKKDDFMCDYCEDTFSQTEELEKHVLTLHPQLSEKADLQCIHCPEVFVDESTLLAHIHQAHANQKHKCPMCPEQFSSVEGVYCHLDSHRQPDSSNHSVSPDPVLGSVASMSSATPDSSASVERGSTPDSTLKPLRGQKKMRDDGQSWPKVVYSCPYCSKRDFTSLAVLEIHLKTIHADKPQQSHTCQICLDSMPTLYNLNEHVRKLHKSHAYPVMQFGNISAFHCNYCPEMFADINSLQEHIRVSHCGPNANPPDGNNAFFCNQCSMGFLTESSLTEHIQQAHCSVGSTKLESPVVQPTQSFMEVYSCPYCTNSPIFGSILKLTKHIKENHKNIPLAHSKKSKAEQSPVSSDVEVSSPKRQRLSGSANSISNGEYPCNQCDLKFSNFESFQTHLKLHLELLLRKQACPQCKEDFDSQESLLQHLTVHYMTTSTHYVCESCDKQFSSVDDLQKHLLDMHTFVLYHCTLCQEVFDSKVSIQVHLAVKHSNEKKMYRCTACNWDFRKEADLQVHVKHSHLGNPAKAHKCIFCGETFSTEVELQCHITTHSKKYNCRFCSKAFHAVILLEKHLREKHCVFDAAAENGTANGVPPTSTKKAEPADLQGMLLKNPEAPNSHEASEDDVDASEPMYGCDICGAAYTMEVLLQNHRLRDHNIRPGEDDGSRKKAEFIKGSHKCNVCSRTFFSENGLREHLQTHRGPAKHYMCPICGERFPSLLTLTEHKVTHSKSLDTGTCRICKMPLQSEEEFIEHCQMHPDLRNSLTGFRCVVCMQTVTSTLELKIHGTFHMQKLAGSSAASSPNGQGLQKLYKCALCLKEFRSKQDLVRLDVNGLPYGLCAGCMARSANGQVGGLAPPEPADRPCAGLRCPECNVKFESAEDLESHMQVDHRDLTPETSGPRKGAQTSPVPRKKTYQCIKCQMTFENEREIQIHVANHMIEEGINHECKLCNQMFDSPAKLLCHLIEHSFEGMGGTFKCPVCFTVFVQANKLQQHIFAVHGQEDKIYDCSQCPQKFFFQTELQNHTMSQHAQ
B2: ZFP521, endogenous in mESCs (protein, UniProt Q6KAS7 1-1311)
chain: MSRRKQAKPRSLKDPNCKLEDKIEDGEAVDCKKRPEDGEELEEDAVHSCDSCLQVFESLSDITEHKIHQCQLTDGVDVEDDPSCSWPASSPSSKDQTSPSHGEGCDFGEEEGGPGLPYPCQFCDKSFSRLSYLKHHEQSHSDKLPFKCTYCSRLFKHKRSRDRHIKLHTGDKKYHCSECDAAFSRSDHLKIHLKTHTSNKPYKCAVCRRGFLSSSSLHGHMQVHERNKDGSQSGSRMEDWKMKDTQKCSQCEEGFDFPEDLQKHIAECHPECSPNEDRAALQCMYCHELFVEETSLMNHIEQVHGGEKKNSCSICSESFLTVEELYSHMDSHQQPESCNHSNSPSLVTVGYTSVSSTTPDSNLSVDSSTMVEAAPPIPKSRGRKRAAQQTSDMTGPSSKQAKVTYSCIYCNKQLFSSLAVLQIHLKTMHLDKPEQAHICQYCLEVLPSLYNLNEHLKQVHEAQDPGLIVSAMPAIVYQCNFCSEVVNDLNTLQEHIRCSHGFANPAAKDSNAFFCPHCYMGFLTDSSLEEHIRQVHCDLSGSRFGSPVLGTPKEPVVEVYSCSYCTNSPIFNSVLKLNKHIKENHKNIPLALNYIHNGKKSRALSPLSPVAIEQTTLKMMQTVGGGPARASGEYICNQCGAKYTSLDSFQTHLKTHLDTVLPKLTCPQCNKEFPNQESLLKHVTIHFMITSTYYICESCDKQFTSVDDLQKHLLDMHTFVFFRCTLCQEVFDSKVSIQLHLAVKHSNEKKVYRCTSCNWDFRNETDLQLHVKHNHLENQGKVHKCIFCGESFGTEVELQCHITTHSKKYNCRFCSKAFHAVILLEKHLREKHCVFETKTPNCGTNGASEQVQKEEAELQTLLTNSQESHNSHDGSEEDVDSSEPMYGCDICGAAYTMETLLQNHQLRDHNIRPGESAIVKKKAELIKGNYKCNVCSRTFFSENGLREHMQTHLGPVKHYMCPICGERFPSLLTLTEHKVTHSKSLDTGNCRICKMPLQSEEEFLEHCQMHPDLRNSLTGFRCVVCMQTVTSTLELKIHGTFHMQKTGNGSSVQTTGRGQHVQKLYKCASCLKEFRSKQDLVKLDINGLPYGLCAGCVNLSKSSSPGLSLPPGASRPGLGQNESLSAMEGKGKAGGLKTRCSSCNVKFESESELQNHIQTVHRELVPDANSTQLKTPQVSPMPRISPSQSDEKKTYQCIKCQMVFYNEWDIQVHVANHMIDEGLNHECKLCSQTFDSPAKLQCHLIEHSFEGMGGTFKCPVCFTVFVQANKLQQHIFSAHGQEDKIYDCTQCPQKFFFQTELQNHTMTQHSS
B3: BEND3, endogenous in mESCs (protein, UniProt Q6PAL0 1-825)
chain: MNSTEISEDVEEVLKNNPVKAEGSDATLDCSRNSRASEKHLLESVLTALHDSSKRKQLDSDGQPDSVPSVKRRRLIPEALLAGMRTRENSSPCQGNGEPASRGRSGSCAWPAEEEPSTEATVPSYKKPLYGISHKIMEKKNPPSGDLLSPYELFEKANSSSGPSPLRLLSESQKRECGVGVATDGDLNIYFLIQKMFYMLNGLTTNMSQLHSKMDLLSLEVSRVKKQVSPSELVAKFQPPPEYQLTASELKQIAEQSLSCGDLACRLLLQLFPELFSDVDFSRGCSACGFAAKRKLESLHLQLIRNYVEVYYPNVKDTAVWQAECLPQLNDFFSRFWAQREMEDSQPGGQVTNFFEADQVDAGHFLDNKDQEEALSLDRSSTIASDHVVDTQDLTEFLDEASSPGEFAVFLLHRLFPELFDHRKLGEQYSCYGDGGKQELDPQRLQIIRNYTEIYFPDMQEEEAWLQQCAQRINDELEGLGLEGGSEGEAPRDDCYDSSSLPDDISVVKVEDNFEGERPGRRSKKIWLVPIDFDKLEIPQPDFEMPGSDCLLSKEQLRSIYESSLSIGNFASRLLVHLFPELFTHENLRKQYNCSGSLGKKQLDPARIRLIRHYVQLLYPRAKNDRVWTLEFVGKLDERCRRRDTEQRRSYQQQRKVHVPGPECRDLASYAINPERFREEFEGPPLPPERSSKDFCKIPLDELVVPSPDFPVPSPYLLSDKEVREIVQQSLSVGNFAARLLVRLFPELFTTENLRLQYNHSGACNKKQLDPTRLRLIRHYVEAVYPVEKMEEVWHYECIPSIDERCRRPNRKKCDILKKAKKVEK
B4: PWWP2B co-purified with PWWP2A (protein, UniProt Q6NUJ5 1-590)
chain: MEPRAGCRLPVRVEQVVNGALVVTVSCGERSFAGILLDCTKKSGLFGLPPLAPLPQVDESPVNDSHGRAPEEGDAEVMQLGSSSPPPARGVQPPETTRPEPPPPLVPPLPAGSLPPYPPYFEGAPFPHPLWLRDTYKLWVPQPPPRTIKRTRRRLSRNRDPGRLILSTIRLRPRQVLCEKCKSTLSPPEASPGPPAAPRARRRLGSGPDRELRKPEEPENGEPTAAATARRSKRERREEDRAPAEQVPRSPVIKISYSTPQGKGEVVKIPSRVHGSLEPFRPQQAPQDDGSQDPEVLDRESRDRPSCAPSASIPKLKLTRPVPAGADLPPPKIRLKPHRLGDSEHEPVYRAELVGELNGYLRDSSPAPCADGPAGGLADLSSGSSGEDDDFKSCPQGPQGREGLAFLVSCPEGRADCASESACSSDSLDEARSSGSEGTPADTGDLSPGHGASAPSVSREARQTVPPLTVRLHTQSVSECITEDGRTVAVGDIVWGKIHGFPWWPARVLDISLGQKEDGEPSWREAKVSWFGSPTTSFLSISKLSPFSEFFKLRFNRKKKGMYRKAITEAANAARHVAPEIRELLTQFET

Molecular target: T1, PWWP2A purified from HeLa cells
Assay: affinity purification with mass spectrometry; purification of PWWP2A-associated proteins from HeLa under high salt (500 mM NaCl); mass spectrometry

Molecule | binding
CHD3, endogenous in HeLa (from UniProt Q12873 1-2000) (enzyme) | no binding
CHD4, endogenous in HeLa (from UniProt Q14839 1-1912) (enzyme) | no binding
HDAC2, endogenous in HeLa nuclear extract (from UniProt Q92769 1-488) (enzyme) | binds
MBD2, endogenous in HeLa (from UniProt Q9UBB5 1-411) | no binding
p66β, endogenous in HeLa (from UniProt Q8WXI9 1-593) | no binding

Molecular target: T2, Flag-2xStrepII (FS2) tagged full-length PWWP2A
Assay: affinity purification with mass spectrometry; Streptactin agarose purification of the FS2-tagged bait from 15 mg benzonase-treated mESC nuclear extract; washes 8 x 15 min in 500 mM NaCl, 0.2% NP-40; desthiobiotin elution; LC-MS/MS (Mascot, 1% FDR)

Molecule | binding
CHD3, endogenous in mESCs (mouse (endogenous in E14 mESCs)) (enzyme) | no binding
CHD4, endogenous in mESCs (from UniProt Q6PDQ2 1-1915) (enzyme) | no binding
HDAC2, endogenous in mESCs (from UniProt P70288 1-488) (enzyme) | binds
MBD2, endogenous in mESCs (from UniProt Q9Z2E1 1-414) | no binding
MTA1, endogenous in mESCs (from UniProt Q8K4B0 1-715) | binds
MTA3, endogenous in mESCs (from UniProt Q924K8 1-591) | binds
SALL4, endogenous in mESCs (from UniProt Q8BX22 1-1067) | binds
p66α, endogenous in mESCs (from UniProt Q8CHY6 1-629) | no binding
p66β, endogenous in mESCs (from UniProt Q8VHR5 1-594) | no binding
B1 | binds
B2 | binds
B3 | binds

Molecular target: T1, PWWP2A purified from HeLa cells
Assay: affinity purification with mass spectrometry; purification of PWWP2A-associated proteins from HeLa under high salt (500 mM NaCl); mass spectrometry
Remark: another data set of the same source

Molecule | binding
B4 | binds

These are yes or no findings as the source states them, for the method shown. Binding seen in cells or lysates may run through a third protein. A yes stands for co-enrichment or nearness to the bait. Other partners may have been found. For part of these data: A no says only that the protein was not detected with the bait. For part of these data: Sequences can lack the tags named with a protein.
